Screening data, single-dose tests

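Phenotypic screen: M. tuberculosis growth, cholesterol and DPPC medium, 4 days; the read-out is not stated. Tested at 50 µM. The record gives no direction; compounds that gave an IC50 in retests scored well above the rest, so higher reads as more growth inhibition. Size under these conditions: about 69,000 compounds, about 370 of them at 50% or above in at least one test.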

Each number is a percent effect as filed.
The controls that fix the scale are not given in the record; negative values are as filed.
Compounds were drawn at random from those tested, without regard to their results.
Two or more numbers in one place are separate tests of the same structure; such repeats can differ widely.

CCc1nc(C)cc(N2CCCC(C(=O)c3ccc(OC)cc3C)C2)n1 (centres undefined) gave 18.92%.
CC(C)c1noc(CN2CCN(CCO)CC2)n1 gave -15.06%.
Cc1ccc2nc(C(=O)N3C[C@@H](C(=O)O)[C@H](c4cccnc4)C3)cn2c1 gave 9.93%.
COc1cccc(CN2CCCCCC2c2cccc(F)c2)c1O (centres undefined) gave 8.327%.
CC(=O)N1CCCn2nc(CNS(=O)(=O)N(C)C(C)C)cc2C1 gave 6.259%.
COCC1CN(S(=O)(=O)C2CC2)Cc2ncn(CC3CC3)c21 (centres undefined) gave -3.864%.
CS(=O)(=O)c1cnc(C2CCCC2)nc1C1CCCNC1 (centres undefined) gave -7.974%.
COc1cc(F)ccc1NC(=O)NCCNC(=O)OC(C)(C)C gave 2.53%.
Cn1cncc1CN1CCC2(CCCN2c2ncccn2)CC1.O=C(O)C(F)(F)F gave -18.11%.
O=S(=O)(Nc1cnn(C2CCOCC2)c1)c1ccc(F)c(F)c1 gave -4.008%.
[H][C@@]12CCCN1C[C@@H](CCSC)N(Cc1cn(CC)nc1C)C2 gave -4.615%.
N#Cc1cn(C2CC2)c(=O)n(CC(O)c2ccccc2F)c1=O (centres undefined) gave -0.4465%.
COc1cccc2c1N(Cc1noc(C(C)(C)C)n1)CCC2 gave -1.718%.
NC(=O)C1CCN(c2ccc(C(=O)N3CCc4ccccc43)cn2)C1 (centres undefined) gave -7.815%.
CNC(=O)Cc1noc(-c2cc3c(s2)CCCC3)n1 gave 8.413%.
O=C1COc2cc(C(=O)NS(=O)(=O)c3ccccc3F)ccc2N1 gave -16.15%.
COCCn1cc(NCc2cn(C)nc2-c2ccncc2)cn1 gave -10.78%.
Cc1ncsc1C(=O)Nc1cccc(OCC(F)F)n1 gave 3.286%.
COCC(O)CN(C)C(=O)c1cccc(-c2csc(C)n2)c1 (centres undefined) gave 7.842%.
O=C(Nc1ncn(CC(=O)N2CCCCCC2)n1)C1CCCO1 (centres undefined) gave 2.479%.
Cn1cc(C[C@H]2[C@H](O)CCN2C(=O)C2CCOCC2)cn1 gave -10.09% & -19.32%.
Cc1cc(C)c(CNC(=O)N2CCCC2c2cc(C)on2)c(=O)[nH]1 (centres undefined) gave 15.15%.
CCCS(=O)(=O)N1CCN(c2cc(-n3ccnc3)nc(C)n2)CC1 gave 0.8056% & 2.782%.
O=C1NCCN1C1CCN(CC(O)c2ccccc2F)CC1 (centres undefined) gave 0.1141%.
Cc1cc(C(=O)N2CCCC(C)C2)ccc1NCc1nc(C2CC2)no1 (centres undefined) gave -3.869%.
Cc1ccc(NC2CCN(C(=O)c3cncnc3C)CC2)nn1 gave 1.262%.
CC(NC(=O)CCN1CCOC1=O)(c1ccccc1)c1ccccc1 gave 6.037%.
O=C(O)C(F)(F)F.O=C(O)C(F)(F)F.c1csc(CN2Cc3nc(CN4CCCC4)oc3C2)c1 gave 10.12%.

Once more, the final 2:

compound,effect
CC(NC(=O)CCN1CCOC1=O)(c1ccccc1)c1ccccc1,6.037
O=C(O)C(F)(F)F.O=C(O)C(F)(F)F.c1csc(CN2Cc3nc(CN4CCCC4)oc3C2)c1,10.12

The values are deposited in ChEMBL (CHEMBL3988442, “University of Dundee, Small-Polar-MMV Screening Library” (2021)).